The results in this text go back to patent US7038022.

Chains of the proteins cited; added tags and fusions are not shown. Where a name states a change or a piece, a line headed by the entry shows the natural chain unless it says otherwise. Chains listed by the source or under a name are the forms on record and can include a tag or linker.
UniProt P19793: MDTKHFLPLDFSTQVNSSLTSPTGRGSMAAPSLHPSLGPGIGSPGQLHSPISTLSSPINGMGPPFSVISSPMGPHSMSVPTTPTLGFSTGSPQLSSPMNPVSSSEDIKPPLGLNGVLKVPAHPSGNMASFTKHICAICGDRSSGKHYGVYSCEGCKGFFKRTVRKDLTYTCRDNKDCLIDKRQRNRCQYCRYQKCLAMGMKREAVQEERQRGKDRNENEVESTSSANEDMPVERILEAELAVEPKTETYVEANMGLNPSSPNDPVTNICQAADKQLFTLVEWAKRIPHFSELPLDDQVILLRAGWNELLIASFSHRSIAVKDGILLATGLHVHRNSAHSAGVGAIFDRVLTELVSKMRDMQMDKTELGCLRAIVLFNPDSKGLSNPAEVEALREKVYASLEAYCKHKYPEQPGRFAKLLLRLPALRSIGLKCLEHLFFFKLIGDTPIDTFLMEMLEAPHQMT
RARα/RXRα heterodimer (COS extract) (Homo sapiens), one chain, as listed by the source: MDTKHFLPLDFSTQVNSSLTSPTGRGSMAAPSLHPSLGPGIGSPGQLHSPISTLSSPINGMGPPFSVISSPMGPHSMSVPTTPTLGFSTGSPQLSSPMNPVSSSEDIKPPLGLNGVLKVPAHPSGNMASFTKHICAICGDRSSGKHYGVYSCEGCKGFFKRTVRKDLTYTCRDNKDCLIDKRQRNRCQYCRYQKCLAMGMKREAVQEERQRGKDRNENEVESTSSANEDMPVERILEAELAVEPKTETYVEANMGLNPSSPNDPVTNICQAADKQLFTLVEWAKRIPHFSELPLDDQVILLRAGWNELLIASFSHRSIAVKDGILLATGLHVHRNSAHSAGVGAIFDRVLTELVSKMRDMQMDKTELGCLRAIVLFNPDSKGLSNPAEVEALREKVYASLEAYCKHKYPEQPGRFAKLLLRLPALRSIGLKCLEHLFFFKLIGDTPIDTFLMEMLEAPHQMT

Common to all, as to assay: EMSA
A general note: In EMSA bound probe runs differently from free probe, usually more slowly.

For one series, the target named is T1, RAR (hRARα) (UniProt P10276).
T1 sequence (looked up, limits assumed): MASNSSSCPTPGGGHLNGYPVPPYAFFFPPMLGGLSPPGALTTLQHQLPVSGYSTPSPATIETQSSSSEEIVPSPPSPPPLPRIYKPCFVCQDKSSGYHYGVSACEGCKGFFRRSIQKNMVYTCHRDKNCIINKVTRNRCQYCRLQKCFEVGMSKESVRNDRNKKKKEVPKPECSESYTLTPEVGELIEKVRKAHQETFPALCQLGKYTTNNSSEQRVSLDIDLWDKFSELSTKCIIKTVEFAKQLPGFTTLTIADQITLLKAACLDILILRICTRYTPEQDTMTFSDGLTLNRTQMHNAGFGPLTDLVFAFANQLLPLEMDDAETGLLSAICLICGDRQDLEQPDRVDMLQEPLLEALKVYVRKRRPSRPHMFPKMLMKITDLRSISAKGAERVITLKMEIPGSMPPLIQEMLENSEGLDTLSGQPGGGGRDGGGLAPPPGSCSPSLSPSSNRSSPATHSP
Particulars: protein translated in vitro, label: 32P.

In series [1] the target is T2, RARα (COS extract) (Homo sapiens) (UniProt P10276).
T2 sequence (looked up, limits assumed): T1 sequence (looked up, limits assumed)
The settings on record: no high affinity complex without RXR; protein in a lysate after overexpression; label: 32P.

In series [2] the test system is RARα/RXRα heterodimer (COS extract) (Homo sapiens). Particulars: COS whole cell extract; protein in a lysate after overexpression; label: 32P.
In the next series the target is RXR (hRXRα) (UniProt P19793). Particulars: protein translated in vitro, label: 32P.
The target in series [3] is RXRα (COS extract) (Homo sapiens) (UniProt P19793). The settings on record: no high affinity complex without RAR; protein in a lysate after overexpression; label: 32P.
The target of series [4] is RXRalpha (hRXRα) (Homo sapiens) (UniProt P19793). The settings on record: weak at low amounts; homodimer at higher concentrations; prefers DR-1 over other DRs; purified recombinant protein; protein details: GST fusion, pGEX-2T; label: 32P.
[5] abbreviates: both RAR and RXR required for high affinity binding.

For some assays here: A negative result means that nothing was seen under these conditions. For some assays here: A weaker result is weaker than the reference pair of the same experiment. For some assays here: Where a protein sequence is shown, tags need not be part of it. For some assays here: Where cells or extracts were used, other partners may take part.

For the sequence “AGCTTAAGGGTTCACCGAAAGTTCACTCGCATAGCTGCT (double strand) [βRARE]”, the binding result with RAR (hRARα) (setting [5]) is “binds more weakly”; in series [1], “binds more weakly”; in series [2], “binds”; with RXR (hRXRα) (setting [5]) it was “binds more weakly”; in series [3], “binds more weakly”.

For “AGCTTCAGGTCAGAGGTCAGAGAGCT (double strand) [DR-1]”, in series [4], the binding result is “binds more weakly”.

For “AGCTGTCACAGGTCACAGGTCACAGGTCACAGTTCAAGCT (double strand) [CRBPII-RXRE]”, the binding result was “binds more weakly” with RAR (hRARα) (very low affinity alone) and “no binding” in the series with RXR (hRXRα) (no detectable binding alone).
